The source of these data is publication PMC3735541.

Amino acid sequences for entries named in this document (tags omitted).
UniProt P18887: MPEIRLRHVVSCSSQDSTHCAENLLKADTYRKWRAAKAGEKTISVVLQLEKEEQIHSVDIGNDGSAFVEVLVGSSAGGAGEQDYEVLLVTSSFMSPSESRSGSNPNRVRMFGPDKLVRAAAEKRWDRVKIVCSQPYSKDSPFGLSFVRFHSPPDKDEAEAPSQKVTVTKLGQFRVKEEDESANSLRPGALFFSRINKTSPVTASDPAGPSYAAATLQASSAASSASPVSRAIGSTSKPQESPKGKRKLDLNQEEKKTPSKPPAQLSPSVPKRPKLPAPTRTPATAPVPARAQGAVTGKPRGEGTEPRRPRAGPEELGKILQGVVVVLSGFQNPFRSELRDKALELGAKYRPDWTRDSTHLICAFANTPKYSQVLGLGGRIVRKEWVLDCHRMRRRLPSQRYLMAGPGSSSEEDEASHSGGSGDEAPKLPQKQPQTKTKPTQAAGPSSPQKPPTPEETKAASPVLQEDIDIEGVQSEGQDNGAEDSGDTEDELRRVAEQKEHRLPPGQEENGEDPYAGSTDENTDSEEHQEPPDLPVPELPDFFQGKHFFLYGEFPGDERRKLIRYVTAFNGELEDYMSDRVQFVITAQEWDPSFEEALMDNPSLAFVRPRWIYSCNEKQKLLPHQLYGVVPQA
UniProt P27695: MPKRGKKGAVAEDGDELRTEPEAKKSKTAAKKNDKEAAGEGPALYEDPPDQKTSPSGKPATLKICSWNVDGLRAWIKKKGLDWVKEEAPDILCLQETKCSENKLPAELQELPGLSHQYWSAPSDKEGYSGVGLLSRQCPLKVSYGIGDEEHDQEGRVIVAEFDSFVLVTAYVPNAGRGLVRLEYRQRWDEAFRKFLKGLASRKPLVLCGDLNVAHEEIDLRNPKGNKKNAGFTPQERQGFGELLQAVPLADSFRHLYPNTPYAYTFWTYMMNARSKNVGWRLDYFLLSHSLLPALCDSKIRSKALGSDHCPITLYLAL

This experiment addresses human X-ray crosscomplementing protein 1 (hXRCC1), full-length, with an N-terminal histidine tag (human) (UniProt P18887). The experiment in a line: pull-down; 350 pmol His-tagged hXRCC1 incubated 1 h with 114 pmol hAPE1 or 130 pmol DNA polymerase beta in 40 ul; Ni-NTA agarose added, washed with 25 mM imidazole, eluted with 250 mM imidazole; SDS-PAGE with Coomassie staining; according to ref. 18 with minor changes; both purified.

No constants are given. Whether binding was seen depends on the method and setting. Some results given as binding are weak or reduced against the parent protein; the word gives no strength.

Regarding “human apurinic/apyrimidinic endonuclease 1 (hAPE1) (from UniProt P27695 1-318) (enzyme; other documents disagree on this pair)”, the binding result was “binds”.
